Binding data for 2 substances are collected here from publication PMC8471547.

Protein sequences, listed by entry. Tags and fused reporters are not part of them.
UniProt Q9GKQ9: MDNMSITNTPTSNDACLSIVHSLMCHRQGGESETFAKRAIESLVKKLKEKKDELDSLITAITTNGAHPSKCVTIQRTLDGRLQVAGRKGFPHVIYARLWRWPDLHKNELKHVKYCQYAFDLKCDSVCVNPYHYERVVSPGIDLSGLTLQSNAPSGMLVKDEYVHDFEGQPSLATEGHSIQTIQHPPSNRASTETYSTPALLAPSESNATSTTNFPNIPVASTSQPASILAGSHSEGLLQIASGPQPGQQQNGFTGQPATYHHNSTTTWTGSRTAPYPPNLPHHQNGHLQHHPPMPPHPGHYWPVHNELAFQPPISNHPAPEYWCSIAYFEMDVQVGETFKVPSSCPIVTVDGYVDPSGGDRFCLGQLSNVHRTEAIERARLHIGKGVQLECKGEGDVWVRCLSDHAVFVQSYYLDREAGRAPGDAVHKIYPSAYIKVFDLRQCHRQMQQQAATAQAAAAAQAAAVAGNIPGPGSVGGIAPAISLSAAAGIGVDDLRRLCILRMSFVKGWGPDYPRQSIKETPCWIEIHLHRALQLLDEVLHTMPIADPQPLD
UniProt P56432: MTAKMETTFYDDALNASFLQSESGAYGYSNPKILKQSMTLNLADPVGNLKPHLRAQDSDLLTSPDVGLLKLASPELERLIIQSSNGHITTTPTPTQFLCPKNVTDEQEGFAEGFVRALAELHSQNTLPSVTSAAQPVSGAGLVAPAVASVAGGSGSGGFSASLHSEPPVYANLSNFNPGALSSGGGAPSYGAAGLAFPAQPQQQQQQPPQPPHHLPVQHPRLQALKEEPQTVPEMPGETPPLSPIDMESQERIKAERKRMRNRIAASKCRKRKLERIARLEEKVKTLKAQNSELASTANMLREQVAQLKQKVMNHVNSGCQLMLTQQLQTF
UniProt A0A286ZZJ6: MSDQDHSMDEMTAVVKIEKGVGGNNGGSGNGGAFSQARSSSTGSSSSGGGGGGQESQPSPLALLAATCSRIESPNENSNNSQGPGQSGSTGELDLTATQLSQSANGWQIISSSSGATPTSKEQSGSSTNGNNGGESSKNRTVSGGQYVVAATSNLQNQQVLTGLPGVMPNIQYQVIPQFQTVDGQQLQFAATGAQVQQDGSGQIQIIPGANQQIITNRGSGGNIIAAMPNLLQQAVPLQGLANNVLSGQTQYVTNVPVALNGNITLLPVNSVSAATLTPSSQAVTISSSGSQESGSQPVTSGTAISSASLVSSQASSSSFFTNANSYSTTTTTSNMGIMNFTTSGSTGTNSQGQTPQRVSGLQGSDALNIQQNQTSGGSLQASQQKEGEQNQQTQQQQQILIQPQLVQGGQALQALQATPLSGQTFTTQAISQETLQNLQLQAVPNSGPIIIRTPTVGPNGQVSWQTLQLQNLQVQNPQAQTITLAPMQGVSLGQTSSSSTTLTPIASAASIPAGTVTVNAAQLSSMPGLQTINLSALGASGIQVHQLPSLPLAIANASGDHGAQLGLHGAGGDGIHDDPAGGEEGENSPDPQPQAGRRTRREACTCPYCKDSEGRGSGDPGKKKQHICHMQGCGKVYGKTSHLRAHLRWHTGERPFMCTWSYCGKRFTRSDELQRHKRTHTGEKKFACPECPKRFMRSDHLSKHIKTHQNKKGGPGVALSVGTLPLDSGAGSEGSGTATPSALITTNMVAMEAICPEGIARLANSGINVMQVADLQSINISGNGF

The assay concerns the target SMAD4 (pig (endogenous in porcine granulosa cells)) (UniProt Q9GKQ9). In words: co-IP; 200 uL protein extract of porcine GCs with 4 ug anti-SMAD4 antibody at 4 °C overnight, Protein A/G magnetic beads 4 h at room temperature; eluted proteins identified by Western blotting; IgG as negative control.

Results are given in words; binding and its absence hold for the method and conditions named. In cells and extracts the contact can be indirect. Some binding calls cover weakened binding; strength is not graded here.

Take c-JUN (from UniProt P56432 1-331): the binding entry is “binds”.
Turning to “SP1 (SP1 transcription factor) (from UniProt A0A286ZZJ6 1-786)”, the binding entry is listed as “binds”.
